Results are given in words; binding and its absence hold for the method and conditions named. Some binding calls cover weakened binding; strength is not graded here.
Columns and labels:
human MUC5AC (human) [1] = target: human MUC5AC (human) (UniProt P98088); experiment: staining of sections of Calu-3 cells in transwell
human MUC5AC (human) [2] = target: human MUC5AC (human) (UniProt P98088); experiment: staining of sections of Calu-3 cells in transwell (legend of FIG. 6A)

Sequences of proteins named here, by UniProt entry; tags and fusion partners are left off. Residues count along the entry.
UniProt P98088, residues 28-5654: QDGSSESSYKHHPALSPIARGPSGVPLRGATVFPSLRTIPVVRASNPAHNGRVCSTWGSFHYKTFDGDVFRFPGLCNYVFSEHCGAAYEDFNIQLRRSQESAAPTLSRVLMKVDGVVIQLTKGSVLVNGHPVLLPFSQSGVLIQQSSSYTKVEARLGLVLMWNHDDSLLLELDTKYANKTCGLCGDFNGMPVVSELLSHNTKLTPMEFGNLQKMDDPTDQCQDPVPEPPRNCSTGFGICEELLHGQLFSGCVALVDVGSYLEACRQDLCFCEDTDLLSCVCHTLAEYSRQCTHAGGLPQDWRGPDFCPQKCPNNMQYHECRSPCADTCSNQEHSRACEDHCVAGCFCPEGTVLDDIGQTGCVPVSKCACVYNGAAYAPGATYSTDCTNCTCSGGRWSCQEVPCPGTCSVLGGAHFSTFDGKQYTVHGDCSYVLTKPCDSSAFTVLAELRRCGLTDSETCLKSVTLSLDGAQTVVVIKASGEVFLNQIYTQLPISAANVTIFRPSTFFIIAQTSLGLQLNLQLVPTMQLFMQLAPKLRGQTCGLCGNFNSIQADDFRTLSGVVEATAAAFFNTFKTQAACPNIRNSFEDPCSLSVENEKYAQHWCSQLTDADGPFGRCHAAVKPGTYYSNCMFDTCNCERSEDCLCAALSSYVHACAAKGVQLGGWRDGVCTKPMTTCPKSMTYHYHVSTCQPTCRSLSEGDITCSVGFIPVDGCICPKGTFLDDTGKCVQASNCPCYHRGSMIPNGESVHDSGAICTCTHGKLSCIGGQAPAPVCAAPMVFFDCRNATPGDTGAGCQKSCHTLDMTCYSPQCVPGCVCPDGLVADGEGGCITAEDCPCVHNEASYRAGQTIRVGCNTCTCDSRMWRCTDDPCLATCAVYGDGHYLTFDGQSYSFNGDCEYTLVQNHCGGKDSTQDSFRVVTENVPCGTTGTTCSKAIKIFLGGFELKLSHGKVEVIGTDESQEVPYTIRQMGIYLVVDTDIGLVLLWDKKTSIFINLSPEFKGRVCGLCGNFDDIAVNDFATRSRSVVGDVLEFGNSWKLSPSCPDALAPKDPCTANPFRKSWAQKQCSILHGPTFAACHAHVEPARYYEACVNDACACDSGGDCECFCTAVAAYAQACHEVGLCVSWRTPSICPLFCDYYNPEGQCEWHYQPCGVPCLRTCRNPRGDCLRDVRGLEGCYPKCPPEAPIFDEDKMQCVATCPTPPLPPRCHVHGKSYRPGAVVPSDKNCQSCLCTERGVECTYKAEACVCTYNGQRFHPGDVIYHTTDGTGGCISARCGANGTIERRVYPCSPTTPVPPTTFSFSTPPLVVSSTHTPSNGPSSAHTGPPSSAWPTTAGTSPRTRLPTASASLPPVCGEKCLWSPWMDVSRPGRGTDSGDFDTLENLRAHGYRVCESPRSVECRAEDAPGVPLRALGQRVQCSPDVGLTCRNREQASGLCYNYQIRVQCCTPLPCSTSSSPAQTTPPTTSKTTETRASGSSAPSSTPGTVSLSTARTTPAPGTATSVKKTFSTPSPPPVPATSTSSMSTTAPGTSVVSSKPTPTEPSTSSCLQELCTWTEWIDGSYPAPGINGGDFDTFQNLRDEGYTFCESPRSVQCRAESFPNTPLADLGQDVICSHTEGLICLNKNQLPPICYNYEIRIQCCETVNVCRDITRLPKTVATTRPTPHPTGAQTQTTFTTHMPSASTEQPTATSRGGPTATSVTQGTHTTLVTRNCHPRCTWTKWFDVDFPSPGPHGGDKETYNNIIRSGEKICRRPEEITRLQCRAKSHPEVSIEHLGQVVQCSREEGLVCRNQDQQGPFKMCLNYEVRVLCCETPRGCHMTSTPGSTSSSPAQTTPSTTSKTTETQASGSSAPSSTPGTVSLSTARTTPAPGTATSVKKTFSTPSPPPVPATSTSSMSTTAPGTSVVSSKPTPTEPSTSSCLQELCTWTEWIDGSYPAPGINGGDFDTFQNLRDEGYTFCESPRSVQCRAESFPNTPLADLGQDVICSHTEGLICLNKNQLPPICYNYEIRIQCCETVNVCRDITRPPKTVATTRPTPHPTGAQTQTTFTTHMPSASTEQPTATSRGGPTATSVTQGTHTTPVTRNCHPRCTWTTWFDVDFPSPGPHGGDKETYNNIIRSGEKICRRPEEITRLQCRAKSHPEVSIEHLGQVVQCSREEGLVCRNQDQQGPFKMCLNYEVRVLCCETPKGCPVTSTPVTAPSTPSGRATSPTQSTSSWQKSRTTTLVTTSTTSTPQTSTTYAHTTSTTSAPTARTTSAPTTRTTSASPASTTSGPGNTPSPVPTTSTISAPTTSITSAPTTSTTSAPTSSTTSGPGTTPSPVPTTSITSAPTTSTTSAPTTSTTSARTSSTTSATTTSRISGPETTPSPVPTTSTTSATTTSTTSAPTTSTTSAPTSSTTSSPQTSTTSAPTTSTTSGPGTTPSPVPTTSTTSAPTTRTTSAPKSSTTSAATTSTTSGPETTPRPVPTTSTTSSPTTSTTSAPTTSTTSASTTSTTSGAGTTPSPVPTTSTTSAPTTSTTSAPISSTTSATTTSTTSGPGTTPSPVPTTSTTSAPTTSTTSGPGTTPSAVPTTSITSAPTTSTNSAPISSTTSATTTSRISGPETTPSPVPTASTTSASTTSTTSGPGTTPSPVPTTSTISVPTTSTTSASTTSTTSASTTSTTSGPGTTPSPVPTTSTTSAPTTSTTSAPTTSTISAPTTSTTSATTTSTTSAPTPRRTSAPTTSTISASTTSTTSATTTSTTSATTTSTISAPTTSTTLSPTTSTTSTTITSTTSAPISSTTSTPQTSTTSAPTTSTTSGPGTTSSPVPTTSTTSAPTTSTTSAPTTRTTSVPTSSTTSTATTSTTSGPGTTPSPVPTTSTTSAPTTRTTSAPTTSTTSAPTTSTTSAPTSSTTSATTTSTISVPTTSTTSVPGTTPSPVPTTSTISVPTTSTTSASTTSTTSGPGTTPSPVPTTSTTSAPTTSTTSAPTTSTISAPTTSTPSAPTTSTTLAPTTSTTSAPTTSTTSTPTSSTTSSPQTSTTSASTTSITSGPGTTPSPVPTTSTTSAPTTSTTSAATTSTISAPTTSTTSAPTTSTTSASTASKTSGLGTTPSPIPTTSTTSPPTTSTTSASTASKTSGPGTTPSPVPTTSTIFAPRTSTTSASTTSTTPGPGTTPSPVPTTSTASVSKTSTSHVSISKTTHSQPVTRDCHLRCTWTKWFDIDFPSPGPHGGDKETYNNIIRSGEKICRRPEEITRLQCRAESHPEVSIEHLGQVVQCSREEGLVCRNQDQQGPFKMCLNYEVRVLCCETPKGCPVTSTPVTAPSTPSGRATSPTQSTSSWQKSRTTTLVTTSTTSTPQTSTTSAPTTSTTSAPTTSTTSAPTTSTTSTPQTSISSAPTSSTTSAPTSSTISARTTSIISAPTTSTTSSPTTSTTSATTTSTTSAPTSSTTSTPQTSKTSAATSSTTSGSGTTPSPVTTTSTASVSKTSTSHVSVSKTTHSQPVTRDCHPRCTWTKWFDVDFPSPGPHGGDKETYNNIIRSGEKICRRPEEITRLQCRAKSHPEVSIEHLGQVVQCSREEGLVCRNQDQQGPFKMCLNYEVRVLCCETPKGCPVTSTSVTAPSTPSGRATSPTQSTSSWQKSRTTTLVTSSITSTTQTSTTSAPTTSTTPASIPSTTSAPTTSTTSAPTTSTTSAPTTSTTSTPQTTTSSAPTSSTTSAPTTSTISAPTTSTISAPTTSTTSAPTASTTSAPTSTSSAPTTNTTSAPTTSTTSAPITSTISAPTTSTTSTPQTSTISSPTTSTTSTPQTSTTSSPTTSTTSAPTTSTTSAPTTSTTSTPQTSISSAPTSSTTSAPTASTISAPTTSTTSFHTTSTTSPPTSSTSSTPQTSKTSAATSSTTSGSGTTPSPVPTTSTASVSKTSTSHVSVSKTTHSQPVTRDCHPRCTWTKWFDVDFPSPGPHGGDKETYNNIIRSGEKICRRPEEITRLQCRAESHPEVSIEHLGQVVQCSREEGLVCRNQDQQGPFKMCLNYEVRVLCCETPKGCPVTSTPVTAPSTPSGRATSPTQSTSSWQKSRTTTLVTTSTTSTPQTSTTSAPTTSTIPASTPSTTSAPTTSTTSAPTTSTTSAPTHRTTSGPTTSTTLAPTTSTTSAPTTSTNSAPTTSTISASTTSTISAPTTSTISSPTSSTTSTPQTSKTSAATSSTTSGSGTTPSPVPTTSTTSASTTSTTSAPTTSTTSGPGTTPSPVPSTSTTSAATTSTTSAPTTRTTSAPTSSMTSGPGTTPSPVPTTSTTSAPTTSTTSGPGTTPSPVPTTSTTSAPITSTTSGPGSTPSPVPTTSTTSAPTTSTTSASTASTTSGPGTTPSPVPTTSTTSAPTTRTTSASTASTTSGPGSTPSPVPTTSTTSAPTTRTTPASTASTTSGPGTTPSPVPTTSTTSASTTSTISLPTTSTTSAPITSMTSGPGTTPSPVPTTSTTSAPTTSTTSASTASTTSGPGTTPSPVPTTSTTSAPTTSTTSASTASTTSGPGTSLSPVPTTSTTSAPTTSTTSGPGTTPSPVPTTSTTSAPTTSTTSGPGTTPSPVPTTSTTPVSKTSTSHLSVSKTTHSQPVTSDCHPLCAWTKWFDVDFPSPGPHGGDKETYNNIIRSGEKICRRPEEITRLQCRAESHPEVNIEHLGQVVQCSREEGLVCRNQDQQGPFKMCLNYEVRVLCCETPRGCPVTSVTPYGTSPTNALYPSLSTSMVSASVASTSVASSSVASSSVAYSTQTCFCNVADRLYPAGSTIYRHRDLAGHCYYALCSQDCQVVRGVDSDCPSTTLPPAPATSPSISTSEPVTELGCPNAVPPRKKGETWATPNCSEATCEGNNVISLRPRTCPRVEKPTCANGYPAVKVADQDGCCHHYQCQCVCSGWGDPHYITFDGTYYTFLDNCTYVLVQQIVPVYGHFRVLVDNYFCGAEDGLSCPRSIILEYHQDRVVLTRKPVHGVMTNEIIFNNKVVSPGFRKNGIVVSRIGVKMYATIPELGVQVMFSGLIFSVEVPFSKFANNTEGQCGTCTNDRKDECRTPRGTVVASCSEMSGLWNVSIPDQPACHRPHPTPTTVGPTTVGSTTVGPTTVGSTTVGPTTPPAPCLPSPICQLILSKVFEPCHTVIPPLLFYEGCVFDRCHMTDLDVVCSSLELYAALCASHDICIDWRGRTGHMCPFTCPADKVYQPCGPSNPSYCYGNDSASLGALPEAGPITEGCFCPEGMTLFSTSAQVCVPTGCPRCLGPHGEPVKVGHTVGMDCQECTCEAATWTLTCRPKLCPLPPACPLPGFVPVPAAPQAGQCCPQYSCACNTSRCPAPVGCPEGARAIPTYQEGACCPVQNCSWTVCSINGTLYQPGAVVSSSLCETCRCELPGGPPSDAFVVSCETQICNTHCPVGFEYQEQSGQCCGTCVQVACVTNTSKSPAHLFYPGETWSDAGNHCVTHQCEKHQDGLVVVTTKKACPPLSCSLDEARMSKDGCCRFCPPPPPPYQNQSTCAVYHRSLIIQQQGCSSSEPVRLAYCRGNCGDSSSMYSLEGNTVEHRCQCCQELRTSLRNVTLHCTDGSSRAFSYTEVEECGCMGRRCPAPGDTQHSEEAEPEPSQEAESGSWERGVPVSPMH

binding (human MUC5AC (human) [1])	binding (human MUC5AC (human) [2])	Binder
binds	binds	mucus-tethering ISV M17 (VHH) VHH: QVQLQESGGGLVQAGGSLRLSCAASGNISPTYLMGWYRQAPGKEREFVAGIAHGASTNYADSVKGRFTISRDNAKNTVYLQMNSLKPEDTAVYYCAVNPYALDVLVYWGQGTQVTVSS
binds	binds	M22 (VHH) VHH: QVQLQESGGGLVQAGGSLRLSCAASGTISRYIYMGWYRQAPGKEREFVASIARGTITYYADSVKGRFTISRDNAKNTVYLQMNSLKPEDTAVYYCAADNKYEDAYYGYWGQGTQVTVSS
